These are yes or no findings as the source states them, for the method shown. Binding seen in cells or lysates may run through a third protein.
Biological target: T1, Z-DNA/RNA binding protein 1 (rat (endogenous in Sprague Dawley hippocampal neurons)) (UniProt Q8VDA5)
T1 sequence: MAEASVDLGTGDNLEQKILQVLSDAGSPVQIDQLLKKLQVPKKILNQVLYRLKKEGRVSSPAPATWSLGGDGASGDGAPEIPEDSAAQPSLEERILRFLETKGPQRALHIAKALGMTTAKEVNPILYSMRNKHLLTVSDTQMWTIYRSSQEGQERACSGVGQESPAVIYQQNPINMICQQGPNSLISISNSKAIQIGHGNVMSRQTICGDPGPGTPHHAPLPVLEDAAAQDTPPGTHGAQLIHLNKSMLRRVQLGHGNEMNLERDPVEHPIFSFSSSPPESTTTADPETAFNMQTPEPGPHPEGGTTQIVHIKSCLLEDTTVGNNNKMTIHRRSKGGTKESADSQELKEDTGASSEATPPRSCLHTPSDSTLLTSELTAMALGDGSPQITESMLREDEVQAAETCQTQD
Experiment: co-IP; lysate of rat hippocampal neurons primed with sevoflurane (3%, 6 h); precipitated with 1 ug anti-ZBP1 antibody and protein A/G PLUS-Agarose overnight at 4 C, washed five times with M2 buffer; immunoblot for ADAR1-P150, ADAR1-P110, ADAR2, ADAR3

Q: For “Adenosine deaminase acting on RNA-1, P110 isoform”, which binding is on record?
A: The binding was “no binding”.
